Results reported in publication PMC10303866.
Results are given in words; binding and its absence hold for the method and conditions named. Binding seen in cells or lysates may run through a third protein. Some binding calls cover weakened binding; strength is not graded here. Tags and fused reporters may be left off the sequences shown.

Amino acid sequences for entries named in this document (tags omitted).
UniProt Q6KC79: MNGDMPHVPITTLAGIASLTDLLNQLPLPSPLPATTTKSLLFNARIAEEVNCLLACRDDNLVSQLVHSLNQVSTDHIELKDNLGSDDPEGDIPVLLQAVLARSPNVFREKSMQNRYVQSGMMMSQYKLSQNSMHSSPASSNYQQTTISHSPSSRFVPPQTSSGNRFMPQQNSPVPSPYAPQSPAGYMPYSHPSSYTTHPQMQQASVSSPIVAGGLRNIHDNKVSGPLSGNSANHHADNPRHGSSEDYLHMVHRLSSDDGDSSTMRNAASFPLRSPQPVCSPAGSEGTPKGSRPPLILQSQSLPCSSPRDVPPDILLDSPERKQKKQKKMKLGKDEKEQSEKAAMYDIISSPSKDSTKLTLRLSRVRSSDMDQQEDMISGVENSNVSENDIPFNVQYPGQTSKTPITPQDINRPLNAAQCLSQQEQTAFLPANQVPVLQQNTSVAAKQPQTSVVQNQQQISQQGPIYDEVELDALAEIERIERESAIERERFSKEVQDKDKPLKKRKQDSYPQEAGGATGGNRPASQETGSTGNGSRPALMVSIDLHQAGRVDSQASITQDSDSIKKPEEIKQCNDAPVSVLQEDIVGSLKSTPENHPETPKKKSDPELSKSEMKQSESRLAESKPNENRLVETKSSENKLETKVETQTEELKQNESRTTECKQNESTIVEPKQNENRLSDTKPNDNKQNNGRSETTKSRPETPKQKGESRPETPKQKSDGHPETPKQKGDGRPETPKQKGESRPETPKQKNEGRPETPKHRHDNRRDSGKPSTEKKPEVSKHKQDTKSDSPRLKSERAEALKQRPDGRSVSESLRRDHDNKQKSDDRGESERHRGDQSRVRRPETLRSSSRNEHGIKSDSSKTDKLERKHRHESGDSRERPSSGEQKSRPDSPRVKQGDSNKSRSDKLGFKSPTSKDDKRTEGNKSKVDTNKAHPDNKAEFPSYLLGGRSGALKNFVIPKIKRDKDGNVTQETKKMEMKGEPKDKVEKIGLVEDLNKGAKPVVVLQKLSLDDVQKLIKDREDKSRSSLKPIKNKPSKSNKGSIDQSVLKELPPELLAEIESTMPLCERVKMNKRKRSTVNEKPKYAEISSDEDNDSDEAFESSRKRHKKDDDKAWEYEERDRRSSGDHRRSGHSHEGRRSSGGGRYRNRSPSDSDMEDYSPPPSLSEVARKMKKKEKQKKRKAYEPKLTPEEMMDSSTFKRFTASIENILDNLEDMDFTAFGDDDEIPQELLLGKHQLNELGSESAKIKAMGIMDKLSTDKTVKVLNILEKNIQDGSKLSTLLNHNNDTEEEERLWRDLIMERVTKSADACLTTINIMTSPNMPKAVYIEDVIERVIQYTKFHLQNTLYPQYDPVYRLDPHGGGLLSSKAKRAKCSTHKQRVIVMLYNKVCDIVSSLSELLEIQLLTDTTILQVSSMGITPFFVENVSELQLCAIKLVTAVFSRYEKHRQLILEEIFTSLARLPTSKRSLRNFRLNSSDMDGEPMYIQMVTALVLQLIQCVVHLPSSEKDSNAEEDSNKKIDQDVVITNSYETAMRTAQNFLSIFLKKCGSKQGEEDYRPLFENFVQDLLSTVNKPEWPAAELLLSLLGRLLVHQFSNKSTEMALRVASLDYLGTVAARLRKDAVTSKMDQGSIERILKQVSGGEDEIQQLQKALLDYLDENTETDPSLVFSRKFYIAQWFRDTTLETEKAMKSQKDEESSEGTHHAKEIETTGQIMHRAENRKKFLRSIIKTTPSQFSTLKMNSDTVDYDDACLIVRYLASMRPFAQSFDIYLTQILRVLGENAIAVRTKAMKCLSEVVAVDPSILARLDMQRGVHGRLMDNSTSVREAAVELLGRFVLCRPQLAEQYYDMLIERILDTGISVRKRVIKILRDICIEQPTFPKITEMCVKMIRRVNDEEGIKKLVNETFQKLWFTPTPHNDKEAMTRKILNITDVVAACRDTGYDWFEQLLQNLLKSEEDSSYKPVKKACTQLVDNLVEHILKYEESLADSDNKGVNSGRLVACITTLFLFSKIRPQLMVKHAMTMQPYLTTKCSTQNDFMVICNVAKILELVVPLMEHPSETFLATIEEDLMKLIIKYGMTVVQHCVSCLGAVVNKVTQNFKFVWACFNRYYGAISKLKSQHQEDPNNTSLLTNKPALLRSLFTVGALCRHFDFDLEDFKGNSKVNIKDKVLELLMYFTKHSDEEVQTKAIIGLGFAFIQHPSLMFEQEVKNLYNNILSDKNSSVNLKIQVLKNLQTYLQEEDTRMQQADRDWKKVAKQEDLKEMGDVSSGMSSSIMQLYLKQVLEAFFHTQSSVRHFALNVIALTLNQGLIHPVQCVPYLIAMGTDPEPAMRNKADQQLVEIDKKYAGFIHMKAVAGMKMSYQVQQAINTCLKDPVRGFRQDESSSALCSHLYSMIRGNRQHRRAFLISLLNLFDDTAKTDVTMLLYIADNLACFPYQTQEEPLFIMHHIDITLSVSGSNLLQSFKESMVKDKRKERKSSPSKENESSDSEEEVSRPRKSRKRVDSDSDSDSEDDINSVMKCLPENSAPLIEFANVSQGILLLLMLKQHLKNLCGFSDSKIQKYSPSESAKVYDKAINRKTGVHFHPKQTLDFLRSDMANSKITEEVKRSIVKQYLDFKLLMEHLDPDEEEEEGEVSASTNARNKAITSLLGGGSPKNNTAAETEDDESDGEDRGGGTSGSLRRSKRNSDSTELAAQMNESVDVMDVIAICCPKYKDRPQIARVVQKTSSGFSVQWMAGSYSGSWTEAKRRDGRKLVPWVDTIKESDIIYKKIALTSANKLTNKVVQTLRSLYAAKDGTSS

Tests used:
[1] = biological target: NIPBL, cohesin loader subunit (human (endogenous in HeLa)) (UniProt Q6KC79); assay: co-IP; Additional file 1: Fig. S2C; HeLa cells transfected with wild-type or LIS-poly-Ala RAD21; methods and bait of this panel not shown
[2] = biological target: T1, WAPL, cohesin release factor (human (endogenous in HeLa)) (UniProt Q7Z5K2); assay: as above
T1 sequence: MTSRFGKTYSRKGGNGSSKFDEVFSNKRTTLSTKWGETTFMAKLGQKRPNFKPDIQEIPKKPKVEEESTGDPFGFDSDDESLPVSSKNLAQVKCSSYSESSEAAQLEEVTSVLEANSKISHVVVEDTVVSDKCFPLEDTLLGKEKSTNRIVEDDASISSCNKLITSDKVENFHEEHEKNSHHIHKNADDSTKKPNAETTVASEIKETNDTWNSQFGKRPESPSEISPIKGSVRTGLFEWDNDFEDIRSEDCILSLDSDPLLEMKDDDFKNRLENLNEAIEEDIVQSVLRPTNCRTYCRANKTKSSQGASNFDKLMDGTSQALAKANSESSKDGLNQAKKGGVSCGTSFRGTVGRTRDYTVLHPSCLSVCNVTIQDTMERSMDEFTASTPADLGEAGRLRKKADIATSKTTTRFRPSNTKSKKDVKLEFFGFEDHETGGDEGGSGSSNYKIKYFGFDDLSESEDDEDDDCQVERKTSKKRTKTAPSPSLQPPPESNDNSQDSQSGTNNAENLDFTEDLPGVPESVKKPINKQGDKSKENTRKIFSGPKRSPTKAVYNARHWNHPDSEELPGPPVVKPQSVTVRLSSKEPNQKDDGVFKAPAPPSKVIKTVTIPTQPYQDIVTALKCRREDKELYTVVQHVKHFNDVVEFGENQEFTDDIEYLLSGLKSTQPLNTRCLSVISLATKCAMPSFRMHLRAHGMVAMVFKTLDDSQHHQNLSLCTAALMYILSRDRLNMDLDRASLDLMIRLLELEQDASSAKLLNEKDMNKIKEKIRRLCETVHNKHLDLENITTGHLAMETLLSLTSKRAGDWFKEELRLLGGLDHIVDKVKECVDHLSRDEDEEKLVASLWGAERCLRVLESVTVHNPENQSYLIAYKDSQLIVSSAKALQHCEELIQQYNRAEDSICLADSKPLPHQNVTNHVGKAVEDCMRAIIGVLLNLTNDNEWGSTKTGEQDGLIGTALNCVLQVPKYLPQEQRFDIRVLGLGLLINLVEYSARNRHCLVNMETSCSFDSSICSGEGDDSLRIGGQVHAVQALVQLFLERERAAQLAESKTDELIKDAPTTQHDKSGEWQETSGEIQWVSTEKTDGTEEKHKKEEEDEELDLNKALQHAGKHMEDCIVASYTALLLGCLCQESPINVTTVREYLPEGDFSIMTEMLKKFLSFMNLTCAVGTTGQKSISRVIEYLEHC

binding [1]: binds
binding [2]: binds
B1: wild-type human RAD21, EGFP-tagged, over-expressed in HeLa cells (protein, UniProt O60216 1-631)
chain: MFYAHFVLSKRGPLAKIWLAAHWDKKLTKAHVFECNLESSVESIISPKVKMALRTSGHLLLGVVRIYHRKAKYLLADCNEAFIKIKMAFRPGVVDLPEENREAAYNAITLPEEFHDFDQPLPDLDDIDVAQQFSLNQSRVEEITMREEVGNISILQENDFGDFGMDDREIMREGSAFEDDDMLVSTTTSNLLLESEQSTSNLNEKINHLEYEDQYKDDNFGEGNDGGILDDKLISNNDGGIFDDPPALSEAGVMLPEQPAHDDMDEDDNVSMGGPDSPDSVDPVEPMPTMTDQTTLVPNEEEAFALEPIDITVKETKAKRKRKLIVDSVKELDSKTIRAQLSDYSDIVTTLDLAPPTKKLMMWKETGGVEKLFSLPAQPLWNNRLLKLFTRCLTPLVPEDLRKRRKGGEADNLDEFLKEFENPEVPREDQQQQHQQRDVIDEPIIEEPSRLQESVMEASRTNIDESAMPPPPPQGVKRKAGQIDPEPVMPPQQVEQMEIPPVELPPEEPPNICQLIPELELLPEKEKEKEKEKEDDEEEEDEDASGGDQDQEERRWNKRTQQMLHGLQRALAKTGAESISLLELCRNTNRKQAAAKFYSFLVLKKQQAIELTQEEPYSDIIATPGPRFHII
